Experimental data reported in article PMC10645843, “Fungal secondary metabolism is governed by an RNA-binding protein CsdA/RsdA complex” (Nature Communications, 2023).
These are yes or no findings as the source states them, for the method shown. For some of these results: A result given as binding can be weak or reduced; the word gives no strength. Tags and fused reporters may be left off the sequences shown.

T1: RsdA-His (PFICI_10532), recombinant (Pestalotiopsis fici, UniProt W3WX91 1-730)
T1 construct: RsdA, regulator of secondary metabolism and development, Pestalotiopsis fici, locus PFICI_10532; open reading frame amplified from P. fici cDNA; RsdA-His printed as 80.4 kDa; Printed as RsdA-His; vector pET28a (His6-tag); also called PfRsdA; RsdA-His protein; source: E. coli BL21 (plasmid pYZS42, pET28a), purified (Ni-NTA resin)
T1 sequence (looked up): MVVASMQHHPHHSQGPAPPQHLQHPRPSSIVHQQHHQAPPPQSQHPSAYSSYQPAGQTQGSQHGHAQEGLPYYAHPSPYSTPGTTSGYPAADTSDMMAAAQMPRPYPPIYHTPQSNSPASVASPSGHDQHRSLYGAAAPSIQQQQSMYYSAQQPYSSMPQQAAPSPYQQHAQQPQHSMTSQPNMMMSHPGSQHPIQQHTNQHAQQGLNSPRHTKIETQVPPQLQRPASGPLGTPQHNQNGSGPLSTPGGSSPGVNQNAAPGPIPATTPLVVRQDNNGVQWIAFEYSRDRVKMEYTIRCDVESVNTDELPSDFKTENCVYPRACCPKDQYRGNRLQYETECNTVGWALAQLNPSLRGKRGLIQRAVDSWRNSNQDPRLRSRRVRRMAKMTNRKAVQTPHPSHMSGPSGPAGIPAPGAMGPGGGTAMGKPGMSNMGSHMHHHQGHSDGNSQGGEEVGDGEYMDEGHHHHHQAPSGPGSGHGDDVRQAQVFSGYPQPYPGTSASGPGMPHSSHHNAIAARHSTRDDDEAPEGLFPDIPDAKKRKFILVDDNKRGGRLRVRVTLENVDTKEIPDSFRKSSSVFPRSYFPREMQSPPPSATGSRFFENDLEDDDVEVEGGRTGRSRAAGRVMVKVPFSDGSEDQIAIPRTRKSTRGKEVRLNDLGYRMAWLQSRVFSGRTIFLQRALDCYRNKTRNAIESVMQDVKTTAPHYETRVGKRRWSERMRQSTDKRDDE


Columns and labels:
[1] = target: T1, RsdA-His (PFICI_10532), recombinant; assay: pull-down; His pull-down: RsdA-His (or RsdA^ΔC-terminal-His) held on Ni-NTA resin, purified GST-CsdA or its deletion forms added, overnight at 4 °C; binding buffer 50 mM Tris, 250 mM NaCl, 0.2% glycerol, 5 mM DTT, 0.6% Triton X-100, 1 mM PMSF, pH 7.5; wash with 1% Triton X-100; western blot with anti-His and anti-GST; both purified
[2] = target: RsdA^ΔC-terminal-His (Pestalotiopsis fici); assay: as above

| Molecule | binding [1] | binding [2] |
| --- | --- | --- |
| GST-CsdA^ΔN-terminal (Pestalotiopsis fici) (domain or fragment) | no binding |  |
| GST-CsdA^ΔRRM (from UniProt W3WSJ8) | binds weakly |  |
| GST-CsdA^ΔZnF (from UniProt W3WSJ8) | binds weakly |  |
| GST-CsdA (PFICI_10709), recombinant (natural protein, Pestalotiopsis fici, UniProt W3WSJ8 1-634, looked up, open reading frame amplified from P. fici cDNA; CsdA said to contain 730 amino acids; GST-CsdA printed as 93.6 kDa; Printed as GST-CsdA; vector pGEX-4T (GST-tag); also called PfCsdA; GST-CsdA protein; source: E. coli BL21 (plasmid pYSZL6, pGEX-4T), purified (GST-tag resin)) MSTVPPQPPHFDRYVVIHVATTCDEHGVYVTKDSAEVIELGWIELDAKSLEELHRESVLVKPINTPITPLCTSLTTLTWEHVRNAGTFRDAINRFDAFASEHLTNQNLDFVFVTLDAWDLRVQLPREARDKAVVLPPYLQHSRTFDLRTEYQRWQQHHPESLPFGPSMLSNICAALEVEPVQSSAPIKHNLPFHLQALAPASPRRAMEEAITLARVLRGLIRKSQPAHEHPDVLTRPMDARADVRAFLSERSKVLHMSGLPHDTTQSELESWFTQFGGRPIAFWTLRTPEQHKPTGTGFAVFSSHEEAAESLCMNGRALNEKAIEVSPSSSRVLDRAAEILTPFPPSKNRPRPGDWTCPSCGFSNFQRRTACFRCSFPAVGAGGPQNEMSSYGGGGGGSGGYGYGAPPMMPPPHHGGHHHHHGGMGHGGGRMGGSGVVPFRAGDWKCGNEVCGYHNFAKNVCCLRCGASRAGAAVVADSGYPSPMDSGSNYGMGSHSVGGTPGPGPYASAGGPFGGAGGGYGQHFGGPPSTYALPSGIGGGAAPYPSALNTHIGGPAPGSHSAGPFDSRAAEAAFQSAGNGPASAGPSNNFFGSQAENDPFAFLSTGIGGLTVSGDARQNGSGAGGPQSKSPAA |  | no binding |
